Assay results: publication doi:10.1101/2025.10.06.680735, “JMJD1B-mediated FEN1 demethylation allows timely switching of Okazaki fragment maturation core enzymes to avoid mutagenic flap ligation by PARP1-LIG3” (bioRxiv, 2025)
Results are given in words; binding and its absence hold for the method and conditions named. For part of these data: In cells and extracts the contact can be indirect. Some binding calls cover weakened binding; strength is not graded here.

Amino acid sequences for entries named in this document (tags omitted).
UniProt P39748: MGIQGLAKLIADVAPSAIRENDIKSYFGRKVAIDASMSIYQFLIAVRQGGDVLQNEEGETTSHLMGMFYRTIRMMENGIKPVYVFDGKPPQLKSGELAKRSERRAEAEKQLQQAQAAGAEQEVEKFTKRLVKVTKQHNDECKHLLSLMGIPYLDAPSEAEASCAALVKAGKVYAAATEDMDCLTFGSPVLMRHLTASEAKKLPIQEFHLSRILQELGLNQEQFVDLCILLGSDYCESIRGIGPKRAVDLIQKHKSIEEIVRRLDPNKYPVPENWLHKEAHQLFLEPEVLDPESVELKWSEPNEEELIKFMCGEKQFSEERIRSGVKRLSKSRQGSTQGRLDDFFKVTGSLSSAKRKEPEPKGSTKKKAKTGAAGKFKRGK
UniProt P17918: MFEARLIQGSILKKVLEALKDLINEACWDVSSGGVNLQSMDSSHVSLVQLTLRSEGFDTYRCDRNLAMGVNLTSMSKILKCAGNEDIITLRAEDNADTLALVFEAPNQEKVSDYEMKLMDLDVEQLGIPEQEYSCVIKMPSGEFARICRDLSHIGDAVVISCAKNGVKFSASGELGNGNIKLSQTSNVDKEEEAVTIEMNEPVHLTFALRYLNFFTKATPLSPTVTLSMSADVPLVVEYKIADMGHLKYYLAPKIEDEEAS
UniProt Q7LBC6: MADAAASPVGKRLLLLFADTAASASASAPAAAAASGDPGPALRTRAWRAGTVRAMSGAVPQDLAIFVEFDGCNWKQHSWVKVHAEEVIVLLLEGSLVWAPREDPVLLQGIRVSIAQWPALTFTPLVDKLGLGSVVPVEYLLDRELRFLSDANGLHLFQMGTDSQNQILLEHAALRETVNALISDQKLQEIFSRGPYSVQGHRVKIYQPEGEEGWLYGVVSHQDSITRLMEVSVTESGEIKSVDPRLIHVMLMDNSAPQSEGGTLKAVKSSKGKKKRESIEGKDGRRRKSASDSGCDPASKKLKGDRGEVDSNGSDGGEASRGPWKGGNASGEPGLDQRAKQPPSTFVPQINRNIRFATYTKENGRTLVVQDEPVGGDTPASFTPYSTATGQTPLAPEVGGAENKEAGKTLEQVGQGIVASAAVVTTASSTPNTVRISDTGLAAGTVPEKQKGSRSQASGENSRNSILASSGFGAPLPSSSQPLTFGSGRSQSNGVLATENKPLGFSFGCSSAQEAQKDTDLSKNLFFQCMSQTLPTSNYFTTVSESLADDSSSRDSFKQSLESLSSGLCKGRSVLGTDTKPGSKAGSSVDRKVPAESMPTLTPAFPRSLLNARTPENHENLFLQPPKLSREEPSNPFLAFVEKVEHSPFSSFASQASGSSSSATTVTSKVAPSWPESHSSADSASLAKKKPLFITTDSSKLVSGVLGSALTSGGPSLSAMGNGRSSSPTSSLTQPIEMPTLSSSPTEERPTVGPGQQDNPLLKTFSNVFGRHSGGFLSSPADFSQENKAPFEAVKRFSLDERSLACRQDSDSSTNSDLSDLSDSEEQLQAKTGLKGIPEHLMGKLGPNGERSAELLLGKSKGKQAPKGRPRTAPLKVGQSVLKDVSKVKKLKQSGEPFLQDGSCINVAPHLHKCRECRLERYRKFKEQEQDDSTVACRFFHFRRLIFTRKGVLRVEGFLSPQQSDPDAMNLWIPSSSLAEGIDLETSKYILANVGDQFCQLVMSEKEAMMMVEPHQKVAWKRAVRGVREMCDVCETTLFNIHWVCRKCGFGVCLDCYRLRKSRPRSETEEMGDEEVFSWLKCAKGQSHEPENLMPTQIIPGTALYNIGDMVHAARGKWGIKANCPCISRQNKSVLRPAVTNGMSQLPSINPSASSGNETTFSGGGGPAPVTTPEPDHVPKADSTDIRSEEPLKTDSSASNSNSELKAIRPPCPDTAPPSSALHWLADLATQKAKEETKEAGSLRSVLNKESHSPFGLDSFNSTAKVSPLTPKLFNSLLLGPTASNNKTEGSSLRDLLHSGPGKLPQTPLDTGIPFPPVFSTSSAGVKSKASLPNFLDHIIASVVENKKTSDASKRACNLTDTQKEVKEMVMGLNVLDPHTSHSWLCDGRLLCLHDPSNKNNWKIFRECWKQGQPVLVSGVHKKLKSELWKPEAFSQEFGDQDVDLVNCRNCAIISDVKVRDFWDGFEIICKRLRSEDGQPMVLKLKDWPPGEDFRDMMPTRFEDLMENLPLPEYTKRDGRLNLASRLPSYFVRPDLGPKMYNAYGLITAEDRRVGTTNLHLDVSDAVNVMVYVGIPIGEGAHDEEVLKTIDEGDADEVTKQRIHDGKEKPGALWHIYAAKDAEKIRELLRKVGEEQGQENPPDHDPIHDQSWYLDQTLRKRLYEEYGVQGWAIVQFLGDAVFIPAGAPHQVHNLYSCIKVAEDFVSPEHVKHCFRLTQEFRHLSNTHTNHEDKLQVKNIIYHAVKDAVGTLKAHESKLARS

Experiments:
[1] = molecular target: Flap endonuclease 1 (FEN1) (human (endogenous in HeLa)) (UniProt P39748); assay: co-IP; endogenous FEN1 immunoprecipitated (anti-FEN1, Genetex) from mimosine-synchronized HeLa cells released into S phase for 0, 4 or 8 h; IP buffer 50 mM HEPES-KOH pH 7.4, 150 mM NaCl, 0.1% NP40, 10% glycerol; immuno-blot for JMJD1B
[2] = molecular target: purified recombinant FEN1 (UniProt P39748); assay: pull-down; BSA, FEN1 or JMJD1B immobilized on cyanogen-bromide-activated Sepharose beads; 100 ng purified JMJD1B on FEN1 beads or 40 ng purified FEN1 on JMJD1B beads; 50 mM Hepes, 100 mM NaCl, 1% BSA, 1 mM DTT, 10% glycerol, pH 7.5, 4°C overnight; immuno-blot; both purified
[3] = molecular target: proliferating cell nuclear antigen (PCNA), in MEFs (mouse (endogenous in MEFs)) (UniProt P17918); assay: proximity ligation; Duolink PLA on endogenous proteins in fixed Jmjd1b-/- MEFs; foci per nucleus

Molecule: JMJD1B (also known as KDM3B) (from UniProt Q7LBC6 1-1761) (enzyme)
- binding [1]: binds

Molecule: purified recombinant JMJD1B (from UniProt Q7LBC6 1-1761) (enzyme)
- binding [2]: binds

B1: DNA ligase 1 (LIG1), in MEFs (enzyme, mouse (endogenous in MEFs), UniProt P37913 1-916, looked up)
chain: MQRSIMSFFQPTKEGKAKKPEKETPSSIREKEPPPKVALKERNQVVPESDSPVKRTGRKVAQVLSCEGEDEDEAPGTPKVQKPVSDSEQSSPPSPDTCPENSPVFNCSSPMDISPSGFPKRRTARKQLPKRTIQDTLEEQNEDKTKTAKKRKKEEETPKESLAEAEDIKQKEEKEGDQLIVPSEPTKSPESVTLTKTENIPVCKAGVKLKPQEEEQSKPPARGAKTLSSFFTPRKPAVKTEVKQEESGTLRKEETKGTLDPANYNPSKNNYHPIEDACWKHGQKVPFLAVARTFEKIEEVSARLKMVETLSNLLRSVVALSPPDLLPVLYLSLNRLGPPQQGLELGVGDGVLLKAVAQATGRQLESIRAEVAEKGDVGLVAENSRSTQRLMLPPPPLTISGVFTKFCDIARLTGSASMAKKMDIIKGLFVACRHSEARYIARSLSGRLRLGLAEQSVLAALAQAVSLTPPGQEFPTVVVDAGKGKTAEARKMWLEEQGMILKQTFCEVPDLDRIIPVLLEHGLERLPEHCKLSPGVPLKPMLAHPTRGVSEVLKRFEEVDFTCEYKYDGQRAQIHVLEGGEVKIFSRNQEDNTGKYPDIISRIPKIKHPSVTSFILDTEAVAWDREKKQIQPFQVLTTRKRKEVDASEIQVQVCLYAFDLIYLNGESLVRQPLSRRRQLLRENFVETEGEFVFTTSLDTKDTEQIAEFLEQSVKDSCEGLMVKTLDVDATYEIAKRSHNWLKLKKDYLDGVGDTLDLVVIGAYLGRGKRAGRYGGFLLAAYDEESEELQAICKLGTGFSDEELEEHHQSLQALVLPTPRPYVRIDGAVAPDHWLDPSIVWEVKCADLSLSPIYPAARGLVDKEKGISLRFPRFIRVRKDKQPEQATTSNQVASLYRKQSQIQNQQSSDLDSDVEDY
notes: DNA ligase 1, mouse, endogenous in MEFs; source: endogenous, mouse embryonic fibroblasts (fixed cells)
- binding [3]: binds
